Measurements taken from US20230008650A1, “SYSTEMS AND METHODS FOR ASSESSING PATIENT-SPECIFIC RESPONSE TO THROMBOPOIETINRECEPTOR AGONISTS” (Trustees of Tufts College, priority 2019, published 2023).
For at least one compound, name, drawing or mass did not settle the structure.

Tests used:
[1] = test system: megakaryocytes of ANKRD26-RT and MYH9-RD patients; assay: Proplatelet formation by ex vivo differentiated megakaryocytes (adhesion on fibronectin, β1-tubulin staining); assay type: cell-based, human
[2] = test system: megakaryocytes of ANKRD26-RT and MYH9-RD patients; assay: Ex vivo platelet production in the perfused silk bone marrow device (flow cytometry count with bead standard); assay type: cell-based, human; settings: TPO + Eltrombopag vs TPO alone; 4 hours of perfusion; ANKRD26-RT and MYH9-RD groups
[3] = test system: megakaryocytes differentiated from peripheral blood progenitors of patients affected by MYH9-RD or ANKRD26-RT; assay: Megakaryocyte differentiation within the silk bone marrow device (flow cytometry, CD41+CD42b+ cells, day 14); assay type: cell-based, human
[4] = test system: patients with different forms of Inherited Thrombocytopenia; settings: follow on phase 2 trial; MYH9-RD, ANKRD26-RT, XLT/Wiskott-Aldrich syndrome, monoallelic Bernard-Soulier syndrome, ITGB3-Related Thrombocytopenia; cited from earlier work

In the case of `CC1=NN(c2ccc(C)c(C)c2)C(=O)/C1=N\Nc1cccc(-c2cccc(C(=O)O)c2)c1O` [Eltrombopag], the “percentage of proplatelet-forming megakaryocytes” value ([1]; TPO in combination with 500 ng/mL Eltrombopag vs TPO alone) was “significant increase”, the “elongation and branching of proplatelet shafts” value ([1]; TPO+EPAG with respect to TPO alone, both diseases) was “increased elongation and branching of proplatelet shafts” and the “number of CD41+CD42b+ platelets collected per single channel” value [2] was “globally increased”. For the same compound, the “output of mature megakaryocytes (CD41+CD42b+ cells) with respect to TPO alone” value ([3]; 10 ng/mL TPO + 500 ng/mL Eltrombopag vs TPO alone, both ANKRD26-RT and MYH9-RD patients) was “significant two-fold increase”, the “megakaryocyte maturation (cell size, ploidy profile, expression of lineage-specific markers) with and without Eltrombopag” value ([3]; 10 ng/mL TPO with or without 500 ng/mL Eltrombopag) was “comparable megakaryocyte maturation” and the “platelet count and bleeding symptoms in patients” value [4] was “safe and effective in increasing platelet count and reducing bleeding symptoms”.
